For at least one compound, name, drawing or mass did not settle the structure.
System: cells in acute midbrain slices from α4 mutant heterozygous and wild type animals
Assay: Electrophysiology on acute midbrain slices
Type: cell-based, mouse
Conditions: heterozygous vs wild type

CC(=O)OCC[N+](C)(C)C [acetylcholine]
concentrations to which heterozygous cells respond relative to those activating receptors in wild type slices: ten times lower
